# Experimental data reported in the supplement of paper PMC8728848.
# The list shows a part of the results.
# B1: Epa20 (Candida glabrata) (protein)
# chain: MGSSHHHHHHSSGLVPRGSHMASSNIPNNYPLGCSNKYSGHLPGLKMELYSYNYVNPRHPDPQNPGKLDQLYDPNLLGTYECFDSSYKDINYPRVGYKSKTLIGRSDGVSGILNFNFVPPWGCMPQKGQLPPAYNFKSNITLSNFTMILFGYFKPKISGNHIFSLHGDDLIYLNFGAGNAFDCCRQESSADNFGNYQAFSLWGINWEKKTLTVYLDMNTYYPIRIFYNNRDYQAIFNFSFKTEFDSSPVIDFQDYFFFLRDIDGGCPGEV
# Key:
# Experiment in all cases: glycan array binding signal (z-score within array); higher = stronger binding
# Settings in all cases: glycan notation: IUPAC condensed, linker removed
# [1] = molecular target: Fuc(a1-2)Gal
# Method in brief: (§1)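 Arrays were curated from the Consortium for Functional Glycomics database, 3228 in total, and kept only where the protein sequence was available. Binding is expressed as a within-array Z-score. This score was averaged across arrays of the same protein sequence at different concentrations or buffers and across linkers, and negative values can be read as non-binding.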
# [2] = molecular target: Fuc(a1-2)Gal(b1-3)GalNAc
# Method in brief: as §1
# [3] = molecular target: Fuc(a1-2)Gal(b1-3)GalNAc(a1-3)[Fuc(a1-2)]Gal(b1-4)Glc
# Method in brief: as §1
# [4] = molecular target: Fuc(a1-2)Gal(b1-3)GalNAc(a1-3)[Fuc(a1-2)]Gal(b1-4)GlcNAc
# Method in brief: as §1
# [5] = molecular target: Fuc(a1-2)Gal(b1-3)GalNAc(b1-3)Gal
# Method in brief: as §1
# [6] = molecular target: Fuc(a1-2)Gal(b1-3)GalNAc(b1-3)Gal(a1-4)Gal(b1-4)Glc
# Method in brief: as §1
# [7] = molecular target: Fuc(a1-2)Gal(b1-3)GalNAc(b1-4)[Neu5Ac(a2-3)]Gal(b1-4)Glc
# Method in brief: as §1
# [8] = molecular target: Fuc(a1-2)Gal(b1-3)GlcNAc
# Method in brief: as §1
# [9] = molecular target: Fuc(a1-2)Gal(b1-3)GlcNAc(b1-2)Man(a1-3)[Fuc(a1-2)Gal(b1-3)GlcNAc(b1-2)Man(a1-6)]Man(b1-4)GlcNAc(b1-4)GlcNAc
# Method in brief: as §1
# [10] = molecular target: Fuc(a1-2)Gal(b1-3)GlcNAc(b1-2)Man(a1-3)[Fuc(a1-2)Gal(b1-3)GlcNAc(b1-2)Man(a1-6)]Man(b1-4)GlcNAc(b1-4)[Fuc(a1-6)]GlcNAc
# Method in brief: as §1
# [11] = molecular target: Fuc(a1-2)Gal(b1-3)GlcNAc(b1-3)Gal(b1-4)Glc
# Method in brief: as §1
# [12] = molecular target: Fuc(a1-2)Gal(b1-3)GlcNAc(b1-3)GalNAc
# Method in brief: as §1
# [13] = molecular target: Fuc(a1-2)Gal(b1-3)GlcNAc(b1-3)[Fuc(a1-2)Gal(b1-3)GlcNAc(b1-6)]GalNAc
# Method in brief: as §1
# [14] = molecular target: Fuc(a1-2)Gal(b1-3)GlcNAc(b1-3)[Gal(b1-4)GlcNAc(b1-6)]Gal(b1-4)Glc
# Method in brief: as §1
# [15] = molecular target: Fuc(a1-2)Gal(b1-3)GlcNAc(b1-3)[Neu5Ac(a2-6)Gal(b1-4)GlcNAc(b1-6)]Gal(b1-4)Glc
# Method in brief: as §1
# [16] = molecular target: Fuc(a1-2)Gal(b1-3)GlcNAc6S
# Method in brief: as §1
# [17] = molecular target: Fuc(a1-2)Gal(b1-3)[Fuc(a1-4)]GlcNAc
# Method in brief: as §1
# [18] = molecular target: Fuc(a1-2)Gal(b1-3)[Fuc(a1-4)]GlcNAc(b1-2)Man(a1-3)[Fuc(a1-2)Gal(b1-3)[Fuc(a1-4)]GlcNAc(b1-2)Man(a1-3)]Man(b1-4)GlcNAc(b1-4)GlcNAc
# Method in brief: as §1
# [19] = molecular target: Fuc(a1-2)Gal(b1-3)[Fuc(a1-4)]GlcNAc(b1-2)Man(a1-3)[Fuc(a1-2)Gal(b1-3)[Fuc(a1-4)]GlcNAc(b1-2)Man(a1-6)]Man(b1-4)GlcNAc(b1-4)[Fuc(a1-6)]GlcNAc(b1-4)[Fuc(a1-6)]GlcNAc
# Method in brief: as §1
# [20] = molecular target: Fuc(a1-2)Gal(b1-3)[Fuc(a1-4)]GlcNAc(b1-3)[Fuc(a1-3)[Gal(b1-4)]GlcNAc(b1-6)]Gal(b1-4)Glc
# Method in brief: as §1
# [21] = molecular target: Fuc(a1-2)Gal(b1-3)[Fuc(a1-4)]GlcNAc(b1-3)[Gal(b1-4)GlcNAc(b1-6)]Gal(b1-4)Glc
# Method in brief: as §1
# [22] = molecular target: Fuc(a1-2)Gal(b1-4)Fuc(a1-3)]GlcNAc(b1-2)Man(a1-3)[Fuc(a1-2)Gal(b1-4)[Fuc(a1-3)]GlcNAc(b1-2)Man(a1-6)]Man(b1-4)GlcNAc(b1-4)GlcNAc
# Method in brief: as §1
# [23] = molecular target: Fuc(a1-2)Gal(b1-4)Glc
# Method in brief: as §1
# [24] = molecular target: Fuc(a1-2)Gal(b1-4)Glc6S
# Method in brief: as §1
# [25] = molecular target: Fuc(a1-2)Gal(b1-4)GlcNAc
# Method in brief: as §1
# [26] = molecular target: Fuc(a1-2)Gal(b1-4)GlcNAc(b1-2)Man
# Method in brief: as §1
# [27] = molecular target: Fuc(a1-2)Gal(b1-4)GlcNAc(b1-2)Man(a1-3)[Fuc(a1-2)Gal(b1-4)GlcNAc(b1-2)Man(a1-6)]Man(b1-4)GlcNAc(b1-4)GlcNAc
# Method in brief: as §1
# [28] = molecular target: Fuc(a1-2)Gal(b1-4)GlcNAc(b1-2)Man(a1-3)[Fuc(a1-2)Gal(b1-4)GlcNAc(b1-2)Man(a1-6)]Man(b1-4)GlcNAc(b1-4)[Fuc(a1-6)]GlcNAc
# Method in brief: as §1
# [29] = molecular target: Fuc(a1-2)Gal(b1-4)GlcNAc(b1-2)[Fuc(a1-2)Gal(b1-4)GlcNAc(b1-4)]Man(a1-3)[Fuc(a1-2)Gal(b1-4)GlcNAc(b1-2)Man(a1-6)]Man(b1-4)GlcNAc(b1-4)GlcNAc
# Method in brief: as §1
# [30] = molecular target: Fuc(a1-2)Gal(b1-4)GlcNAc(b1-3)Gal(b1-4)GlcNAc
# Method in brief: as §1
binder,measurement,setting,value
B1,glycan array binding signal (z-score),[1],-0.362
same,glycan array binding signal (z-score),[2],-0.452
same,glycan array binding signal (z-score),[3],-0.469
same,glycan array binding signal (z-score),[4],-0.278
same,glycan array binding signal (z-score),[5],0.885
same,glycan array binding signal (z-score),[6],0.487
same,glycan array binding signal (z-score),[7],-0.415
same,glycan array binding signal (z-score),[8],-0.518
same,glycan array binding signal (z-score),[9],0.572
same,glycan array binding signal (z-score),[10],-0.099
same,glycan array binding signal (z-score),[11],-0.454
same,glycan array binding signal (z-score),[12],-0.358
same,glycan array binding signal (z-score),[13],0.398
same,glycan array binding signal (z-score),[14],0.139
same,glycan array binding signal (z-score),[15],-0.719
same,glycan array binding signal (z-score),[16],-0.404
same,glycan array binding signal (z-score),[17],-0.382
same,glycan array binding signal (z-score),[18],0.295
same,glycan array binding signal (z-score),[19],-0.356
same,glycan array binding signal (z-score),[20],-0.793
same,glycan array binding signal (z-score),[21],-0.805
same,glycan array binding signal (z-score),[22],3.16
same,glycan array binding signal (z-score),[23],-0.513
same,glycan array binding signal (z-score),[24],0.294
same,glycan array binding signal (z-score),[25],-0.626
same,glycan array binding signal (z-score),[26],-0.199
same,glycan array binding signal (z-score),[27],-0.453
same,glycan array binding signal (z-score),[28],-0.005
same,glycan array binding signal (z-score),[29],-0.337
same,glycan array binding signal (z-score),[30],-0.782

# An excerpt of these results, with tabs.
binder	measurement	setting	value
B1	glycan array binding signal (z-score)	[11]	-0.454
same	glycan array binding signal (z-score)	[12]	-0.358
